Among all 330,000 compounds or so, about 1,000 (0.3%) were called active. Inconclusive means that the source gave no clear call. Such entries were picked first, then a sample of the others. Calls come from the whole dose curve; as a rule, active = well fitted inhibition curve with a large enough effect; inconclusive = small, poorly fitted or top-dose-only effect; inactive = no such curve, though single readings can be large or run the other way; tested in mouse RAW 264.7 cells. Potencies of inconclusive entries are doubtful fits and often do not repeat.
Test: qHTS for Inhibitors of Cell Surface uPA Generation; note: nearly all actives have a fitted effect of over 55% in size
Conditions: cell surface uPA generation assay; series mostly up to 38.3 µM; activity change, negative = inhibition: at the top concentration
In short: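 RAW 264.7 cells, 4000/well, given compound (1:5 dilutions, up to 38.3 uM final) and incubated 24 h at 37 C. Blocked uPA-dependent LF entry keeps ATP high; ATPlite luminescence read, 5 s exposure.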
% is set by controls: 0 for no effect and ±100 for the full control effect; potency is the fitted concentration of half-maximal effect.

Compound	Potency	activity change, negative = inhibition
CCOC(=O)c1cnc2c(Cl)cccc2c1NCCCN1CCOCC1	inconclusive: 17.8 µM [inhibitor, partial curve, poor fit]	
Cc1nc(C)c(-c2csc(Nc3ccc(N)cc3)n2)s1	active: 4.47 µM	
CC(C)C[C@H]1CNC(=S)N1CC1CCN(CCCC2CCCCC2)CC1	inconclusive: 22.4 µM [inhibitor, single point]	
O=C(CS(=O)(=O)c1ccccc1)Nc1ccc(Cl)cn1		inactive: -1.47%
Cn1nc(C(=O)Nc2ccc(Br)cc2)cc1C(=O)Nc1ccc(Br)cc1		inactive: 7.06%
CCOC(=O)c1nc(C)nc(Sc2n[nH]c(-c3cc(C(F)(F)F)cc(C(F)(F)F)c3)n2)c1C		inactive: -15.1%
Cc1cccc(-n2nnnc2SCC(=O)NCC2(N3CCOCC3)CCCCC2)c1C	inconclusive: 7.94 µM [inhibitor, partial curve, poor fit]	
COc1ccccc1NC(=O)C1(C)Cc2ccccc2C(=O)O1 (stereo not given)	inconclusive: 14.1 µM [inhibitor, single point]	
COc1cccc(/C=C/C(=O)OCC(=O)NCCC2=CCCCC2)c1		inactive: -1.4%
S=c1[nH]nc(-c2ccccc2)n1/N=C/c1cccc(Cl)c1	inconclusive: 14.1 µM [inhibitor, partial curve, poor fit]	
CC[C@H](C)C(=O)O[C@H]1C[C@@H](C)C=C2C=C[C@H](C)[C@H](CC[C@@H]3C[C@@H](O)CC(=O)O3)[C@H]21	inconclusive: 0.891 µM [inhibitor, full curve, poor fit]	
COc1ccc2[nH]cc(C(=O)CN3CCCC(C)(C)C3)c2c1	inconclusive: 1.12 µM [inhibitor, single point]	
COC(=O)C1=C(O)CSC1=Nc1ccccc1		inactive: 7.43%
CC(=O)O[C@H]1C2OC(=O)C(C)=C2[C@@H]2OC(=O)[C@]3(CCC4OC41C)OC23 (stereo not given in full)	active: 7.08 µM	
COc1ccc(C(=O)c2coc3ccc(O)c(CN4CCCC4)c23)cc1	inconclusive: 11.2 µM [inhibitor, partial curve, poor fit]	
COC(=O)c1nn(-c2ccc(OC)cc2)c(=O)cc1Oc1ccccc1		inactive: 0.911%
COC(=O)c1ccc(CSc2nc3c(c(=O)n2-c2ccccc2)SCC3)o1	inconclusive: 12.6 µM [inhibitor, single point]	
COc1ccc(CN(C)C(=O)c2[nH]c(C)c(C(C)=O)c2C)cc1F		inactive: 0.16%
COc1ccc(C(=O)C(CCCCC(CN(C)C)C(=O)c2ccc(OC)cc2)CN(C)C)cc1 (stereo not given)		inactive: -12.7%
CCCCNC(=O)CS(=O)Cc1nc(-c2ccc(C)cc2)oc1C (stereo not given)	inconclusive: 12.6 µM [inhibitor, single point]	
COc1ccc(-c2cnnn2-c2ccc(NC(=O)c3ccc(S(=O)(=O)N4CCCCC4)cc3)cc2)cc1OC	inconclusive: 3.16 µM [inhibitor, full curve]	
CCOC(=O)/C=C/C(=O)Nc1ccc(S(=O)(=O)N2CCc3ccccc32)cc1	inconclusive: 12.6 µM [inhibitor, single point]	
Cc1ccc(CNC(=O)C(=O)NCC2OCCN2S(=O)(=O)c2ccc(Br)cc2)cc1 (stereo not given)	inconclusive: 12.6 µM [inhibitor, single point]	
CCn1c(CSc2nc3ccccc3s2)nnc1SCC(=O)c1ccc(O)c(O)c1	inconclusive: 3.98 µM [inhibitor, partial curve, poor fit]	

An excerpt of these results, bar-delimited:
Compound | Potency | activity change, negative = inhibition
COc1cccc(/C=C/C(=O)OCC(=O)NCCC2=CCCCC2)c1 |  | inactive: -1.4%
S=c1[nH]nc(-c2ccccc2)n1/N=C/c1cccc(Cl)c1 | inconclusive: 14.1 µM [inhibitor, partial curve, poor fit] | 
CC[C@H](C)C(=O)O[C@H]1C[C@@H](C)C=C2C=C[C@H](C)[C@H](CC[C@@H]3C[C@@H](O)CC(=O)O3)[C@H]21 | inconclusive: 0.891 µM [inhibitor, full curve, poor fit] | 
COc1ccc2[nH]cc(C(=O)CN3CCCC(C)(C)C3)c2c1 | inconclusive: 1.12 µM [inhibitor, single point] | 
COC(=O)C1=C(O)CSC1=Nc1ccccc1 |  | inactive: 7.43%
CC(=O)O[C@H]1C2OC(=O)C(C)=C2[C@@H]2OC(=O)[C@]3(CCC4OC41C)OC23 (stereo not given in full) | active: 7.08 µM | 
COc1ccc(C(=O)c2coc3ccc(O)c(CN4CCCC4)c23)cc1 | inconclusive: 11.2 µM [inhibitor, partial curve, poor fit] | 
COC(=O)c1nn(-c2ccc(OC)cc2)c(=O)cc1Oc1ccccc1 |  | inactive: 0.911%
COC(=O)c1ccc(CSc2nc3c(c(=O)n2-c2ccccc2)SCC3)o1 | inconclusive: 12.6 µM [inhibitor, single point] | 
COc1ccc(CN(C)C(=O)c2[nH]c(C)c(C(C)=O)c2C)cc1F |  | inactive: 0.16%
COc1ccc(C(=O)C(CCCCC(CN(C)C)C(=O)c2ccc(OC)cc2)CN(C)C)cc1 (stereo not given) |  | inactive: -12.7%
CCCCNC(=O)CS(=O)Cc1nc(-c2ccc(C)cc2)oc1C (stereo not given) | inconclusive: 12.6 µM [inhibitor, single point] | 
COc1ccc(-c2cnnn2-c2ccc(NC(=O)c3ccc(S(=O)(=O)N4CCCCC4)cc3)cc2)cc1OC | inconclusive: 3.16 µM [inhibitor, full curve] | 
CCOC(=O)/C=C/C(=O)Nc1ccc(S(=O)(=O)N2CCc3ccccc32)cc1 | inconclusive: 12.6 µM [inhibitor, single point] | 
Cc1ccc(CNC(=O)C(=O)NCC2OCCN2S(=O)(=O)c2ccc(Br)cc2)cc1 (stereo not given) | inconclusive: 12.6 µM [inhibitor, single point] | 

(cont.)

Compound	Potency	activity change, negative = inhibition
CCOc1ccc(OCC)c(NC(=O)CN2CCN(c3ccc(C)cc3C)CC2)c1		inactive: -3.96%
CCC(C)N1CCC2(CC1)N=c1c(c3c4c5c(C)c(O)c3c(O)c1=NC(=O)C(C)=CC=C[C@H](C)[C@H](O)[C@@H](C)[C@@H](O)[C@@H](C)[C@H](OC(C)=O)[C@H](C)[C@@H](OC)C=CO[C@@](C)(O5)C4=O)N2 (stereo not given in full)	inconclusive: 7.08 µM [inhibitor, single point]	
O=C(NCc1cccc(C(F)(F)F)c1)C1CC(c2ccccc2C(F)(F)F)=NO1 (stereo not given)	inconclusive: 14.1 µM [inhibitor, single point]	
Cc1[nH]c2ccccc2c1CN1CCC(CO)(Cc2ccccc2)CC1	inconclusive: 11.2 µM [inhibitor, single point]	
Cc1cc(C)cc(N2CC(C)Cn3c2nc2c3c(=O)[nH]c(=O)n2C)c1 (stereo not given)	inconclusive: 1.58 µM [inhibitor, full curve, poor fit]	
COc1cc(/C=N/Nc2ncc(C(F)(F)F)cc2Cl)cc(OC)c1OC	inconclusive: 12.6 µM [inhibitor, partial curve, poor fit]	
Cc1ccc(NC(=S)N2CCN(C)CC2)c(C)c1		inactive: 6.01%
O=C(N/N=C\c1c(O)ccc2ccccc12)c1ccc(O)cc1	inconclusive: 12.6 µM [inhibitor, single point]	
O=C(NCCCN1CCCC1)c1ccc(CS(=O)(=O)c2ccc(Cl)cc2)o1	inconclusive: 12.6 µM [inhibitor, single point]	
COc1ccccc1N1CCN(/N=C/c2ccc(O)cc2O)CC1	inconclusive: 5.01 µM [inhibitor, partial curve]	
Cc1ccc2cc(CN(CCc3ccccc3)C(=S)NCCCN(C)C)c(=O)[nH]c2c1		inactive: -7.88%
COc1ccccc1N1CCN(CC(C)N(C(=O)C2CCCCC2)c2ccccn2)CC1 (stereo not given)		inactive: 6.89%
O=C(Nc1nccs1)C1CC(=O)N(CCc2ccc(F)cc2)C1 (stereo not given)		inactive: 5.6%
CCCCn1c(=N)n(CC(=O)C(C)(C)C)c2ccccc21		inactive: 1.24%
COc1cc([N+](=O)[O-])ccc1NC(=S)NNC(=O)c1ccc2c(c1)OCO2		inactive: -19.9%
O=C(Nc1nc(-c2ccccn2)cs1)c1ccc(F)c(S(=O)(=O)N2CCOCC2)c1	active: 3.98 µM	
Cc1c(OC(C)C(=O)NCC2CCC(C(=O)O)CC2)ccc2c3c(c(=O)oc12)CCCC3 (stereo not given)		inactive: -4.04%
O=C(Nc1ccc(S(=O)(=O)Nc2nccs2)cc1)c1cc(=O)[nH]c2ccccc12	inconclusive: 2.24 µM [inhibitor, single point]	
c1ccc(-c2noc(-c3ccncc3)n2)nc1		inactive: -27.4%
CC[C@]12c3[nH]c4cc(CCC(=O)N(C)C)ccc4c3CCN1C(=O)[C@@H](CC(=O)NC/C=C(\C)CCC=C(C)C)C[C@@H]2C(=O)N1CCN(C(=O)C2CC2)CC1	inconclusive: 20 µM [inhibitor, single point]	
CC(=O)Nc1ccc(-c2csc(NC=C3C(=O)OC(C)(C)OC3=O)n2)cc1	inconclusive: 20 µM [inhibitor, single point]	
Cc1cc(C)c2cc(CN(CCO)Cc3nnnn3Cc3ccccc3)c(=O)[nH]c2c1		inactive: -6.44%
O=C(Nc1nnc(Cc2ccc([N+](=O)[O-])cc2)s1)c1ccc2c(c1)OCO2		inactive: 2.33%
COc1cccc(C(=O)Oc2cc3c4c(c2)C(C)=CC(C)(C)N4C(=O)C3=O)c1	inconclusive: 11.2 µM [inhibitor, single point]	

Compound	Potency	activity change, negative = inhibition
COCc1cc(=O)[nH]c(SCCS(=O)(=O)c2ccc(Cl)cc2Cl)n1	inconclusive: 10 µM [inhibitor, partial curve, poor fit]	
COc1ccccc1C(=O)NNC(=O)c1ccc2ccccc2c1	inconclusive: 31.6 µM [inhibitor, single point]	
CCOc1ccc(C(=O)C(CCC(CN(C)C)C(=O)c2ccc(OCC)cc2)CN(C)C)cc1 (stereo not given)	active: 1.12 µM	
O=c1cc(-c2ccc(O)c(O)c2)oc2c1ccc1ccccc12	active: 2.51 µM	
N#Cc1cc(-c2ccccc2)nc(Oc2ccccc2)n1	inconclusive: 31.6 µM [inhibitor, partial curve, poor fit]	
O=C(O)CCCn1c(O)c(C=C2N=c3ccccc3=N2)sc1=S	inconclusive: 3.98 µM [inhibitor, partial curve, poor fit]	
CCc1nccn1-c1cc(C(C)(C)C)nc2c(-c3ccc(Cl)cc3)cnn12		inactive: 1.74%
O=C(NNC(=S)NCc1ccccc1)c1ccc(Br)o1	active: 2.82 µM	
Cc1ccc(/C=C/C(=O)c2ccc([N+](=O)[O-])o2)cc1	inconclusive: 1.12 µM [inhibitor, full curve, poor fit]	
CC(C)c1ccc(S(=O)(=O)N2CCC(C(=O)N3CCN(c4cccc(Cl)c4)CC3)CC2)cc1	inconclusive: 17.8 µM [inhibitor, single point]	
O=c1cc(-c2ccccc2)oc2cc(O)c(O)c(O)c12	inconclusive: 10 µM [inhibitor, partial curve]	
c1nc(NCC2(N3CCOCC3)CCCCC2)c2ccsc2n1		inactive: -0.657%
O=C1CSC(=S)N1/N=C/c1ccc(C(F)(F)F)cc1		inactive: 1.85%
C=CCNc1ncnc2c1cnn2-c1ccc(C)cc1C		inactive: 0.117%
CN1CCN(c2ccc(S(=O)(=O)N3CCOCC3)cc2NC(=O)CSCc2ccccc2)CC1	inconclusive: 2.51 µM [inhibitor, full curve, poor fit]	
Cc1cc(C)n2nc(Nc3ccccc3)cc2n1		inactive: -14%
O=[N+]([O-])/C=C\c1ccc(N2CCOCC2)cc1	active: 8.91 µM	
COc1ccc(/C=N/NC(=O)CCSc2nc3ccccc3s2)cc1	active: 3.98 µM	
CCOc1ccc(NC(=O)COc2cccc3c2CCN(Cc2cccnc2)C3=O)cc1	inconclusive: 4.47 µM [inhibitor, partial curve, poor fit]	
COc1ccc(NS(=O)(=O)c2cc(-c3cnc(C4CC4)o3)ccc2C)cc1	inconclusive: 1.12 µM [inhibitor, full curve, poor fit]	
Cc1cc(/C=N/NC(=O)c2ccsc2)c(C)n1-c1cnccn1		inactive: -0.219%
O=C1N=C(N2CCOCC2)S/C1=C\c1ccc(-c2ccccc2Cl)o1		inactive: 3.77%

From PubChem BioAssay AID540303 (National Center for Advancing Translational Sciences (NCATS), 2011)
